Laboratory results taken from US20210330616A1, “AMELIORATING AGENT FOR OBESITY-RELATED METABOLIC DISEASE” (METABOLIC AND OBESE RESEARCH SCIENCE CORPORATION, priority 2018, published 2021).
pKd: −log10 of the molar value. Counter-ions that a name gives are not always drawn.

By UniProt entry, the sequences of proteins in these tests, tags left out. Where a name states a change or a piece, a line headed by the entry shows the natural chain unless it says otherwise.
UniProt Q9BYK8: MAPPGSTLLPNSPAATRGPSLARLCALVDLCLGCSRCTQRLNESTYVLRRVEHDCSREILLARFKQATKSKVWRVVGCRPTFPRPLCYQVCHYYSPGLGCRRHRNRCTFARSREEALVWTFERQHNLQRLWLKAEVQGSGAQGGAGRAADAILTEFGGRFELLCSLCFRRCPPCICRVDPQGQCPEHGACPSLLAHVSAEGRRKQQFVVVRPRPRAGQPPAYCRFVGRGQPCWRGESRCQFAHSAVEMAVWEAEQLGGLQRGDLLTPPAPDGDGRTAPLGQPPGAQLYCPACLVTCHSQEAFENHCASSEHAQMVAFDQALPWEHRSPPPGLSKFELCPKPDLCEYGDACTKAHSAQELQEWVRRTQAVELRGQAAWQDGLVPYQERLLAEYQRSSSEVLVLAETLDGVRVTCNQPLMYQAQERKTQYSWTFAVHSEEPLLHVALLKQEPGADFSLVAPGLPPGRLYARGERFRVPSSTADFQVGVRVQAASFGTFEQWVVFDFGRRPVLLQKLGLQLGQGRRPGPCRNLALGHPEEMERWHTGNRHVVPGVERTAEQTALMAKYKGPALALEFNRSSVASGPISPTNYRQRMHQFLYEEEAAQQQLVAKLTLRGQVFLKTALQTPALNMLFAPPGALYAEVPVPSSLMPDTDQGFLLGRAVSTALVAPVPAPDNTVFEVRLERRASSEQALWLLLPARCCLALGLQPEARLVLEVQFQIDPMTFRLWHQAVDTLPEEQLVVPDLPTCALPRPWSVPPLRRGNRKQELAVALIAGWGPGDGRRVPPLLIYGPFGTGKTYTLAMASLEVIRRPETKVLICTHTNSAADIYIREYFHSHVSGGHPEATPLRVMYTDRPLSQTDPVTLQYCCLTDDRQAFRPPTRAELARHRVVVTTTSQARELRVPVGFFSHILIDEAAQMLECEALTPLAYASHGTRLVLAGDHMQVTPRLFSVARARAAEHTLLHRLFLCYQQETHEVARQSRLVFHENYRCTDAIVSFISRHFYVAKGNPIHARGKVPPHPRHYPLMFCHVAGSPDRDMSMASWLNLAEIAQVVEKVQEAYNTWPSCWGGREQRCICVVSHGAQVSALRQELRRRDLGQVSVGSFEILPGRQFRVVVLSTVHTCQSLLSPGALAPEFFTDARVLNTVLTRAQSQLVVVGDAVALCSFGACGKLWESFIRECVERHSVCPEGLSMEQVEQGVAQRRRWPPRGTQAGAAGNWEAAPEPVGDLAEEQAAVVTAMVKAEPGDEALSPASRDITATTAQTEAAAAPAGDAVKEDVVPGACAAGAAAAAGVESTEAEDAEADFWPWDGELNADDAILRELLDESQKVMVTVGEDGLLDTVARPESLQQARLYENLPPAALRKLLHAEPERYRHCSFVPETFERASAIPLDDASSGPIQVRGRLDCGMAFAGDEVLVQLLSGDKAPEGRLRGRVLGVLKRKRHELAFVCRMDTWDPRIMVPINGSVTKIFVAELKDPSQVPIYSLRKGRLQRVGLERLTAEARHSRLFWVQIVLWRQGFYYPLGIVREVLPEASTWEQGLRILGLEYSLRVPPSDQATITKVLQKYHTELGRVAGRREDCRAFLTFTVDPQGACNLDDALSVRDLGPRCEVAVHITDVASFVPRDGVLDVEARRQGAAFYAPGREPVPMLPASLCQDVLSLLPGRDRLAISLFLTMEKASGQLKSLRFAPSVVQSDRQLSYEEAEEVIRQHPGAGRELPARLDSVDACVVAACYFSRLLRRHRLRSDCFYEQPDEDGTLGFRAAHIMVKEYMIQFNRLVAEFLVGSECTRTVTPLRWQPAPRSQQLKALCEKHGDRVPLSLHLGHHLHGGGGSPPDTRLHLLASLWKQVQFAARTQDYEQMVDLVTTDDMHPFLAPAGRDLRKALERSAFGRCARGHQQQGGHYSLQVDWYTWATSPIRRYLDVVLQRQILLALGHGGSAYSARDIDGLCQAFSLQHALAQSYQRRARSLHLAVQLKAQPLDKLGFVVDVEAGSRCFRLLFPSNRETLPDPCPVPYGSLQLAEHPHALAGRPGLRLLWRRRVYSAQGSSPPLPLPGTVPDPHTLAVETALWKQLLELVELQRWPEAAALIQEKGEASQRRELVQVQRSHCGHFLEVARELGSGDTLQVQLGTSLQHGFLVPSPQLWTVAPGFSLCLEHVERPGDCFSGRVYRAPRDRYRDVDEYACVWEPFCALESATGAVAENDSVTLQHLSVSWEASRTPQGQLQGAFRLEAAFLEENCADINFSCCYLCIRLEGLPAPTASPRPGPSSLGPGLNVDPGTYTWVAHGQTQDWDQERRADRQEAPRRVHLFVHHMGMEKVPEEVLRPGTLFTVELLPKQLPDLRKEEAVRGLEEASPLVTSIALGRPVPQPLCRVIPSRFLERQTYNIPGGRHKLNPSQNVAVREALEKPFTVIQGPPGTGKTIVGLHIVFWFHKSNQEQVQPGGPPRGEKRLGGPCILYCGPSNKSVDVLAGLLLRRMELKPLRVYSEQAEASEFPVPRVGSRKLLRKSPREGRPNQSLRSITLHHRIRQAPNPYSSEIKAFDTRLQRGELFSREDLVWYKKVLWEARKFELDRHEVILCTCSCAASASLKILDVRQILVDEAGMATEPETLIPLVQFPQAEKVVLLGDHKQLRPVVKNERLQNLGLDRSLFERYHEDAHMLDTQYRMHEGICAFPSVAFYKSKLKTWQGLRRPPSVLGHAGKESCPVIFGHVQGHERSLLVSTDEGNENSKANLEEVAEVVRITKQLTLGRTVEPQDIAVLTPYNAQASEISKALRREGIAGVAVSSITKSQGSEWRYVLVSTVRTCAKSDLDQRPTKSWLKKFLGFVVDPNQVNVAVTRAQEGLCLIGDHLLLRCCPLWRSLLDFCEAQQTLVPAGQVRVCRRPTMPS

Target: T1, Helz2 (Homo sapiens, UniProt Q9BYK8)
T1 construct: 3xFLAG (N); made in house; host or cells: HEK293 cells
Assay: High-throughput screening through surface plasmon resonance for low-molecular-weight compounds that bind to Helz2
Details: purified Helz2 protein, read-out: KD value for binding to and dissociating from Helz2
Description: 1. High-Throughput Screening for Low-Molecular-Weight Compounds that Bind to Helz2
HEK293 cells were allowed to express Helz2 by using a Helz2 expression vector (p3×FLAG-CMV10-pDIP2), and Helz2 protein was purified.

pKd: 6.31 to 9.00
Structure (SMILES): CN1CCC[C@@H]1CCO[C@](C)(c1ccccc1)c1ccc(Cl)cc1 [clemastine fumarate]
